# Screening data, single-dose tests

Chains of the proteins cited; added tags and fusions are not shown. Residues count along the entry.
UniProt Q8IDJ8, 1-583: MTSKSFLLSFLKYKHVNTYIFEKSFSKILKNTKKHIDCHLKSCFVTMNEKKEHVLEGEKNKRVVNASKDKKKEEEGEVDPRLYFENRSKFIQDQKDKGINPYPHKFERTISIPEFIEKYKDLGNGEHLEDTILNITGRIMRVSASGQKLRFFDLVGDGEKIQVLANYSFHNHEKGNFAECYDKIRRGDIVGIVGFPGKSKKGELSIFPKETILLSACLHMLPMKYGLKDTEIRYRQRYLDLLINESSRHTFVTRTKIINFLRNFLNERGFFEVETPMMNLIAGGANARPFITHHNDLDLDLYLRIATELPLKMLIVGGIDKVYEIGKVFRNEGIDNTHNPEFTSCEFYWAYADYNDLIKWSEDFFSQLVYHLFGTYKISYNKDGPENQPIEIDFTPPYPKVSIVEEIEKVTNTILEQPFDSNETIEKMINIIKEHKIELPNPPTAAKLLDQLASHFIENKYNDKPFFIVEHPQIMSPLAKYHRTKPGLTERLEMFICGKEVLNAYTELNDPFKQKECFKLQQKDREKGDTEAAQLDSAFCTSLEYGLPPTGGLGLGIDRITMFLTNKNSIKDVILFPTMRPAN

Measurements from “University of Dundee, Small-Polar-MMV Screening Library” (2021), ChEMBL document CHEMBL3988442.

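Lysine-tRNA ligase, Plasmodium falciparum 3D7 (UniProt Q8IDJ8). Enzyme assay of the cytosolic lysyl-tRNA synthetase in 384-well plates, read by luminescence. Tested at 30 µM. Direction is inferred from only a few compounds that gave an IC50; most scored high, so higher reads as stronger inhibition. About 69,000 compounds were tested under these conditions; 0.071% (about 49) showed 50% or more at least once.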

Results are given as percent effect.
How 0% and 100% were set is not recorded. Most values in the screen are low, and negative values occur.
The compounds are a random part of those screened.

SMILES	effect
COc1nccc(N2CC[C@@H](N3CCCCCC3)[C@H](O)C2)c1C#N	3.98%
Cc1ccccc1CSc1nc(N)cc(N2CCOC(C(N)=O)C2)n1 (stereo not given)	-2.212%
CN(Cc1cccc(F)c1)C(=O)CS(=O)(=O)Cc1ccc(Cl)c(Cl)c1	8.158%
CC(C)c1n[nH]c(C2CN(Cc3nnc(C4CC4)o3)CCO2)n1 (stereo not given)	-5.226%
Cc1ccc(C)c(OC(C)C(=O)Nc2cccnc2)c1 (stereo not given)	0.6187%
CC(Cc1ccco1)NS(=O)(=O)N1CCCCCC1 (stereo not given)	3.362%
O=C(O)[C@@H]1CN(C(=O)NCC2CCCCC2)C[C@H]1c1ccccn1	9.171%
COCC(NC(=O)NCc1sccc1C)c1ccco1 (stereo not given)	4.578%
Cc1ccccc1C(Nc1ncnc2c1CCNC2)c1ccccc1 (stereo not given)	2.769%
COC(=O)c1cccn1C1CCN(Cc2ccccc2)CC1	5.889%
CC(C)[C@H](NC(=O)NC1CCS(=O)(=O)C1)C(=O)NCc1ccccc1Cl (stereo not given in full)	-2.717%
Cn1cc(CN2CC3(CCN(C(=O)c4cscn4)C3)C2)cn1	-0.8347%
CC(C)S(=O)(=O)N1CCCC(c2cccc(C(=O)O)c2)C1 (stereo not given)	0.03337%
CN1CCN(C(C)(C)CNC(=O)C2CCCN2S(C)(=O)=O)CC1 (stereo not given)	-1.782%
NC(=O)c1c(-c2ccc(Cl)cc2Cl)csc1NC(=O)CCCC(=O)O	4.863%
O=C(NCc1ccc(Br)cc1)NCC1CCOC1 (stereo not given)	-1.335%
CC(C)c1nc(CN(C)C(=O)C2CC(=O)N(Cc3ccncc3)C2)cs1 (stereo not given)	0.9455%
Cc1nn(C)c(Cl)c1C1CCCN1C(=O)c1cc[nH]n1 (stereo not given)	1.902%
COc1ccc(-c2cn(CCn3c(C)cc(C)nc3=O)nn2)cn1	13.04%
Cc1noc(C)c1S(=O)(=O)N1CCc2nc(C3CCNCC3)ncc2C1	3.289%
Cc1cc(-c2nn3c(C(C)C)nnc3s2)on1	1.367%
Cc1ccc(CN2Cc3c(C(=O)N4CCCC4)nn(C)c3C2)s1	0.1535%
Cc1cc(-c2nn(C)c(Cl)c2CN2CC[C@H](CO)[C@@H](O)C2)no1	5.935%
CC(C)N1CCOC(c2ccnc(N(C)C)n2)C1 (stereo not given)	0.7633%
O=C(CCOc1ccccc1F)N1CCCC1Cn1cccn1 (stereo not given)	0.02026%
CC(O)CN1CCC(CNCc2cccc(Br)c2)CC1 (stereo not given)	0.7706%
Cc1nc(COCC2CN(C(N)=O)Cc3nccn3C2)cs1 (stereo not given)	3.703%
Cc1csc(Nc2nccnc2C2CCCN2CC(N)=O)n1 (stereo not given)	2.489%
CCc1nc(CN2CCCN(C(=O)c3ccnc(C)n3)CC2)cs1	1.092%
CC(C)[C@H]1CN(Cc2ccccn2)C[C@@H]1NC(=O)CC1CCC1	5.104%
NC(=O)Nc1ccc(C(=O)NCCn2cccc2)cc1	-5.331%
CN(C)C(=O)CN1CCCCC1c1nc(N)ncc1-c1ccc(Cl)cc1 (stereo not given)	2.563%
CC(C)NC(=O)N1CCC[C@H]1C(=O)NCCCc1cccc(F)c1	3.641%
COCC(=O)N1CCC(c2c(C(=O)N(C)C)sc3ncccc23)C1 (stereo not given)	-0.6914%
CC(C)(C(=O)NCC1CCN(Cc2ncc[nH]2)C1)c1ccccc1 (stereo not given)	3.677%
COCC1CC2(CCN(Cc3cccnc3)CC2)CN1C(C)C (stereo not given)	5.19%
CN(C)c1ccc(CNC(=O)NCCc2ccccn2)cn1	0.4408%
O=C(NCCn1ccc(-c2ccncc2)n1)C1CC1	5.576%
FC1(F)CCNCC12CCN(c1ncccn1)C2 (stereo not given)	5.812%
Cc1cnc(N2Cc3cnn(Cc4ccc(F)cc4)c3C2)nc1N(C)C	0.06673%
Cc1ncsc1CCN(C)C1CCN(c2ncnc3[nH]cnc23)CC1	1.812%
CC(=O)N[C@H]1CN(S(=O)(=O)N(C)Cc2ccccc2)C[C@@H]1C1CC1	5.886%
CCNC(=O)NC(=O)CN1CCCC1c1nc(C2CCCCC2)co1 (stereo not given)	-0.4316%
O=C(NCC1CC1)N1CCN(Cc2ccc3c(c2)OCCO3)CC1	3.423%
CO[C@@H]1CCN(Cc2c(C)noc2C)[C@@H]2CN(Cc3cccnc3)C[C@@H]21	1.186%
Cc1c[nH]c(CN(C)C(=O)c2ccc(CSc3nnc[nH]3)o2)n1	0.1963%
CS(=O)(=O)N[C@@H]1CCN(Cc2cccnc2)[C@H]1Cc1cccnc1	-7.895%
COc1ccc(CN(C)C(=O)NCc2c(C)cc(C)nc2OC)cc1	1.058%
CN1CCOC(CN(C(=O)CN2CCCC2=O)c2nccs2)C1 (stereo not given)	-1.886%
C[S+]([O-])c1ccc(NC(=O)Cc2cccnc2)cc1F (stereo not given)	-7.332%
Cc1cnc(NCCc2c[nH]cn2)nc1-c1ccnn1C	-0.6787%
CCN(CC(=O)NC(C)C)C(=O)c1ccc(-c2ccsc2)nc1C	5.293%
CC(=O)NCCNC(=O)N(C)Cc1ccc2c(c1)OCCO2	6.328%
Cn1[nH]c(C2CCC2)c(-c2ccc3c(c2)OCO3)c1=N	2.697%

For reference, 4 entries once more:

SMILES	effect
O=C(NCC1CC1)N1CCN(Cc2ccc3c(c2)OCCO3)CC1	3.423%
CC(=O)NCCNC(=O)N(C)Cc1ccc2c(c1)OCCO2	6.328%
CC(C)c1nc(CN(C)C(=O)C2CC(=O)N(Cc3ccncc3)C2)cs1 (stereo not given)	0.9455%
O=C(NCc1ccc(Br)cc1)NCC1CCOC1 (stereo not given)	-1.335%